Measurements from article PMC4853472, “Trapping mammalian protein complexes in viral particles” (Nature Communications, 2016).
No constants are given. Whether binding was seen depends on the method and setting. Some entries that bind do so weakly or less than the wild type.

Protein sequences, listed by entry. Tags and fused reporters are not part of them.
UniProt P23297: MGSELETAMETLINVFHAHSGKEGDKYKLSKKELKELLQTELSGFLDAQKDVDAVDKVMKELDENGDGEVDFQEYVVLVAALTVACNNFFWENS

Experiments:
S100B = biological target: T1, S100B (UniProt P04271)
T1 sequence: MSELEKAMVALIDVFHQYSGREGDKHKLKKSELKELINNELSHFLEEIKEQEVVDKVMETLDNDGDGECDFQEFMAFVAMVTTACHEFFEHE

S100A1 = S100A1 (UniProt P23297)

For S100A1 (from UniProt P23297 1-94), the binding (S100B) was “binds”.

B1: S100B (protein, UniProt P04271 1-92)
chain: MSELEKAMVALIDVFHQYSGREGDKHKLKKSELKELINNELSHFLEEIKEQEVVDKVMETLDNDGDGECDFQEFMAFVAMVTTACHEFFEHE
In the case of B1, the binding (S100A1) is reported as “binds”.
